{
  "source": "PubChem BioAssay AID493014",
  "about": "(National Center for Advancing Translational Sciences (NCATS), 2011)",
  "experiment": "qHTS Assay to Find Inhibitors of Chronic Active B-Cell Receptor Signaling",
  "conditions": "ABC-DLBCL IkBa-CBG/CBR reporter, luminescence ratio (green luciferase fused to IkBa over red control in TMD8 lymphoma cells), 4 h",
  "method_in_brief": "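Concentration-response series (up to 46 uM) were applied to TMD8 dual-reporter cells for 4 h at 37C with doxycycline. Green/red ratio, after filter-overlap correction, defined %Activity; red signal alone was normalised to basal cells and zero luminescence.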",
  "key": {"[1]": {"conditions": "measured here: CBR red luminescence, cell number"}},
  "note": "Some of the results follow. These are further read-outs of the screen, such as a control signal, another cell line or another target. No call is given for them. Compounds called inactive in the main read-out are mostly missing here. The note in brackets gives the kind of curve behind each potency; many fits are weak.",
  "data": [
    {"smiles": "Cc1ccc(Cn2nc(C)c(C(=O)N3CCN(S(=O)(=O)/C=C/c4ccccc4)CC3)c2C)cc1", "values": [
      {"measurement": "AC50", "setting": "[1]", "value": "0.82 µM [rising, full curve, poor fit]"}
    ]},
    {"smiles": "C/C(CC(=O)Nc1ccc(Cl)c(C(F)(F)F)c1)=N\\NC(N)=S", "values": [
      {"measurement": "AC50", "setting": "[1]", "value": "10 µM [falling, partial curve, poor fit]"}
    ]},
    {"smiles": "CCn1cc(C(=O)O)c(=O)c2cc(F)c(N3CCN(C(=S)Nc4ccccc4OC)CC3)cc21", "values": [
      {"measurement": "AC50", "setting": "[1]", "value": "22.4 µM [falling, single point]"}
    ]},
    {"smiles": "COc1cc(C(=O)NCC(c2cccnc2)N2CCN(c3ccccc3)CC2)cc(OC)c1OC", "note": "(stereo not drawn)", "values": [
      {"measurement": "AC50", "setting": "[1]", "value": "6.51 µM [rising, single point]"}
    ]},
    {"smiles": "COc1ccc(NC(=O)c2oc3ccccc3c2NC(=O)c2ccc3c(c2)OCO3)cc1", "values": [
      {"measurement": "AC50", "setting": "[1]", "value": "2.91 µM [falling, full curve]"}
    ]},
    {"smiles": "O=C(O)c1ccc(N/N=C/c2ccncc2)cc1", "values": [
      {"measurement": "AC50", "setting": "[1]", "value": "0.447 µM [falling, full curve]"}
    ]},
    {"smiles": "CC(C)c1ccc2[nH]c3c(c2c1)CCC/C3=N\\NC(=O)c1ccncc1", "values": [
      {"measurement": "AC50", "setting": "[1]", "value": "8.91 µM [rising, partial curve]"}
    ]},
    {"smiles": "O=C(CSc1cccc[n+]1[O-])c1cc(Cl)ccc1Cl", "values": [
      {"measurement": "AC50", "setting": "[1]", "value": "0.708 µM [falling, partial curve, poor fit]"},
      {"measurement": "AC50", "setting": "measured here: IkBa-CBG green luminescence", "value": "0.631 µM [falling, full curve, poor fit]"}
    ]},
    {"smiles": "Cc1c(OCC(=O)N2CCC(C(=O)O)CC2)ccc2c3c(c(=O)oc12)CCC3", "values": [
      {"measurement": "AC50", "setting": "[1]", "value": "2.51 µM [falling, partial curve]"}
    ]},
    {"smiles": "CCC(CC)NC(=O)c1oc2ccccc2c1COc1ccccc1", "values": [
      {"measurement": "AC50", "setting": "[1]", "value": "13 µM [falling, partial curve, poor fit]"}
    ]},
    {"smiles": "Cc1cc(NC(=O)CSc2nnc(C3COc4ccccc4O3)n2N)no1", "note": "(stereo not drawn)", "values": [
      {"measurement": "AC50", "setting": "[1]", "value": "3.55 µM [falling, single point]"}
    ]},
    {"smiles": "BrC(/C=N/N1CCN(Cc2ccccc2)CC1)=C/c1ccccc1", "values": [
      {"measurement": "AC50", "setting": "[1]", "value": "0.2 µM [rising, full curve, poor fit]"}
    ]},
    {"smiles": "COC(=O)c1cc2occc2n1Cc1nc(-c2ccccc2F)oc1C", "values": [
      {"measurement": "AC50", "setting": "[1]", "value": "0.501 µM [rising, full curve, poor fit]"}
    ]},
    {"smiles": "CCOC(=O)c1sc2nc(CC(=O)OC)nc(N(C)CCc3ccccn3)c2c1C", "values": [
      {"measurement": "AC50", "setting": "[1]", "value": "0.794 µM [rising, partial curve, poor fit]"}
    ]},
    {"smiles": "N#C/C(=C(/O)c1ccc(Br)s1)c1nc2ccccc2[nH]1", "values": [
      {"measurement": "AC50", "setting": "[1]", "value": "0.282 µM [falling, full curve, poor fit]"}
    ]},
    {"smiles": "C=CCc1cc(OC)ccc1OCCN(C)Cc1ccccc1", "values": [
      {"measurement": "AC50", "setting": "[1]", "value": "31.6 µM [rising, single point]"}
    ]},
    {"smiles": "O=C(CSc1nc(=O)n2ccccc2n1)Nc1ccc2c(c1)OCO2", "values": [
      {"measurement": "AC50", "setting": "[1]", "value": "25.9 µM [rising, single point]"}
    ]}
  ]
}
